# Laboratory results reported in PubChem BioAssay AID1347426 (Functional Genomics Laboratory (NCATS/FGL), 2020).
# The whole screen tested about 31,000 sequences, of which about 1,400 (4.5%) were called active.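 How the source made its calls: active means median seed-adjusted z-score above 1 or below -1; inactive means the rest.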 Some of the results follow.
# Experiment: Novel Modifiers of Survival Motor Neuron (SMN) Protein: Gene Identification via Genome-wide siRNA Screen;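 further: luminescence tracks full-length SMN protein made from the SMN2 reporter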
# Conditions: HEK293T SMN2-luciferase reporter, siRNA knockdown, 72 h; actives lie on both sides
# How it was run: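 Steps: spot 1 pmol siRNA, add Lipofectamine RNAiMax in serum-free DMEM, seed HEK293T SMN2–luciferase reporter cells; incubate 72 h at 37 °C; add ONE-Glo; normalize luminescence to control siRNA, log10, MAD. Candidates: |MAD| > 1.0.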
row,Sequence,median seed-adjusted z-score
1,CCGGCGAUGUUAAUGUCAATT against ALG11,inactive: 0.183
2,CCUGUAGACAGCAUCAAAATT against METTL2B,inactive: 0.769
3,CCACCUUGGAUGUUACCAATT against EIF2S3,inactive: -0.0572
4,GUCUAAAGGCCUCUGGAUATT against WNT6,inactive: 0.027
5,UCGUCUACCUGGAGAUUGATT against NOTCH1,inactive: 0.116
6,GCUACACACCCUACACGAATT against OSGIN1,inactive: -0.131
7,GGUCUCCACAAGUAUCUGATT against PDLIM3,inactive: -0.297
8,CAGACUUUGUGAUAAGGCUTT against GPRC5A,inactive: -0.56
9,GCAACUGGAAGGAACGGAUTT against FXYD5,inactive: -0.0885
10,CUCUUAUCCUGGGAAAUUATT against ASCL3,inactive: 0.0929
11,GGCUAUUGCUUGAAGAGUATT against LGTN,inactive: 0.491
12,CAGUCAGAGUAGGAAAUAATT against ANAPC10,inactive: 0.946
13,GGUUGAUUGCCUUACGUGATT against SMC5,inactive: 0.0666
14,GCAUGGUGAAUUACUGUGATT against TRIM16,inactive: 0.345
15,GUAAGAACGAGAUCCUGGATT against KRT82,inactive: 0.129
16,GGAUGAUCACUACAUGAUUTT against OBSCN,inactive: -0.798
17,GGGAUGCAAUACUUCAGUUTT against MCART1,inactive: -0.605
18,GCACGUAUGACAAAGCGAUTT against PTPRJ,inactive: 0.0522
19,CAGCUUAAAUGGUUGUAGATT against PAPOLG,inactive: 0.0674
20,GUACGUAUGCAACCGAUUATT against SLC1A4,inactive: 0.209
21,UAUUUUCCCUGAGCCUAUATT against SFTPA2B,inactive: -0.016
22,CAACCUCCCUACCACCUGATT against UBE2L6,inactive: -0.455

# Look-ups from the results shown.
# median seed-adjusted z-score, GCUACACACCCUACACGAATT against OSGIN1 reads inactive: -0.131
# median seed-adjusted z-score, UCGUCUACCUGGAGAUUGATT against NOTCH1 reads inactive: 0.116
# median seed-adjusted z-score, CCUGUAGACAGCAUCAAAATT against METTL2B reads inactive: 0.769
# median seed-adjusted z-score, CCGGCGAUGUUAAUGUCAATT against ALG11 reads inactive: 0.183

# (listing goes on)

row,Sequence,median seed-adjusted z-score
1,GAUCUGUGGUUGCAAACGATT against TRMT1,inactive: -0.224
2,CCACGAAGAAGAGAUCAUATT against PRIM2,inactive: -0.0161
3,ACAUUGAUUUCAUGGAGUATT against GUCA1A,inactive: 0.101
4,CUUUAACGGUGAAUAUGCATT against PSPH,inactive: -0.518
5,GAUCGGCACUUACACCUGUTT against OPHN1,inactive: 0.692
6,GGAGGAGGUUAAGAACUCATT against CAMKK1,inactive: 0
7,GAAGCAUUGCUUACGCUGATT against PKP2,inactive: -0.0809
8,GGUUCCAUCUGGAUAUGGATT against SEC24B,inactive: -0.493
9,CCUUACCUGUAAACAGAGATT against ESR2,active: -1.1
10,UCUUCUUGAUGGAUCUGAATT against PON3,inactive: -0.0823
11,CAACUACAGCUGCUAUACATT against RBMS1,inactive: 0.798
12,GCACAGGCAUCAUCGGGAATT against SGSH,inactive: 0.383
13,CCGUCAUCCUGAUUGAUGATT against FUT11,inactive: -0.15
14,GCGCACAACGGAAACAAUATT against MEX3B,inactive: -0.0576
15,CCACAGUACUCCAAUCCGATT against SATB2,inactive: -0.389
16,GGGAUAUCAGUGUAUGUCATT against ABCC12,inactive: 0.204
17,GUGCUAUGUUGGAAACCAATT against FZD4,inactive: 0.0695
18,GUGUCGUACUCACAUCCAUTT against PTCH2,inactive: -0.191
19,ACAAUCCUGUACAAACUGATT against ARF5,inactive: -0.507
20,GCAUUCUGCCCUAUUCAUUTT against RHEBL1,inactive: -0.268
21,CUUGUGUUCUGAGAAUACATT against KRT83,active: 1.15
22,UCUCUGAAGUCAAACCCAATT against MCM7,inactive: 0.0993

row,Sequence,median seed-adjusted z-score
1,AGCUGAGUGUGGUUGAUUUTT against CD8B,inactive: 0.174
2,GGCUCUGACUACAAACUGATT against AP3S2,inactive: 0.521
3,GGUCUUCGCUAGCAUCUCATT against CLN3,inactive: 0.105
4,CAGUCGUCGGUUCCACAUATT against EREG,inactive: 0.29
5,AGUCUGUCCGAGUACUUCATT against LFNG,inactive: -0.13
6,GAGGCGCACUACAAAGGUATT against ZNF385A,inactive: -0.968
7,GGAAACUCGUGGACUAUGATT against BIN2,inactive: 0.205
8,UACCGUCCCUCUUCAGUAATT against CASP7,inactive: 0.213
9,CAGAGUAUGUAAAUAGACATT against CAPRIN1,active: 1.36
10,GGAAUAUUGGUGAACGAUATT against ZCCHC8,inactive: 0.356
11,GGUACUCCAGAGUAUAACATT against CMYA5,inactive: -0.858
12,GCAAUAAACCCAGAACUCUTT against KIF2C,inactive: 0.0122
13,CAUUCGGCAUGAACCAUGATT against ADAMTS10,inactive: 0.856
14,GCAGAAAUCAAAUUGAAGATT against QKI,inactive: -0.206
15,GCACGUACCGCUUCGAAAATT against SLC4A10,inactive: 0.026
16,CCAACAUUGUUAAGGUGAUTT against TIAM2,inactive: -0.0239
17,AGACAGCUAUGUAUCCACUTT against ZBTB45,inactive: 0
18,GGACCUCCAUCGUGUUUGATT against SLC29A4,inactive: 0.0192
19,GAGAUGCGCAAAUUCACUCTT against IP6K2,inactive: -0.193
20,CCACUACUAUAGUAAAGAATT against MADD,inactive: 0.363
21,GUUUCAGAUUGGUAUACGATT against CSTF2,inactive: 0.586
22,GGUCAGUUCUGGGAAGAUUTT against SLC27A3,inactive: -0.341

row,Sequence,median seed-adjusted z-score
1,GACAUAUCUUGGAACUUCUTT against CASP14,inactive: 0.702
2,CGAAAGGAGUGCUACGCUATT against KIF19,inactive: 0.342
3,ACAUCAAGUGUGCACGUAATT against PRDM12,inactive: 0.245
4,GAACUGGACUUAUUUGAUUTT against PRKY,inactive: 0.168
5,GAGCCUUACCAUCAAACUUTT against PPP1R11,inactive: -0.498
6,CCACAGAGAUAAGCAGUCATT against IL15RA,inactive: -0.0113
7,GCAUAUCCACACCACCCAATT against KRTAP5-6,inactive: 0.185
8,CCUCCUAGAUGAUAUCAGUTT against SOCS7,inactive: 0.179
9,GUCAUGACAUGUUACCCAATT against TTBK2,inactive: 0.423
10,GGAGUUUGCGUUUGAGGUATT against PLCD1,inactive: -0.0473
11,CAAUCUGUCACGUAAGUCATT against EXTL3,inactive: -0.353
12,AAAUGAUACAUACUGGAAATT against ZNF140,inactive: 0.587
13,GCUUCUAUGAGUACCAGAATT against KLHL20,inactive: -0.0828
14,GGACCUGAUUGAUGCCGUCTT against PYCR1,inactive: -0.171
15,GGAUACACUCAGACUCUAATT against VDAC1,inactive: 0.133
16,CCUUACUACAUGGAACUUATT against GINS2,inactive: 0.553
17,CGGUGGUCAUGAAUCGGUUTT against AQP5,inactive: -0.116
18,GGACCGAAGUGACUGUCUATT against CLNS1A,inactive: 0.232
19,CGUUCUAUCAACAAACUCATT against EIF2S1,inactive: -0.175
20,CGAUGAAGGGUUCCGAUUATT against CR1,inactive: 0.143
21,GGAGUCAACUGUGACAAGATT against TCEA3,inactive: -0.28
22,GCUCAUUCCUUUUCGAGCATT against PEG3,inactive: 0.5

row,Sequence,median seed-adjusted z-score
1,GCAGCUUUAACCAUUAAAATT against LTB4R,inactive: 0.498
2,GGUGGGUCCAGAUAACAGATT against AMIGO2,inactive: -0.258
3,GGAGCAAAACCAAGGAUCATT against RBM24,inactive: 0.0471
4,CGACUUUCUACUAUUCGAATT against ABCB5,inactive: 0.495
5,CUACCGAAGUGAUCCGAAUTT against RIMS2,inactive: 0.534
6,CGUCGGCGAGUACAACAAATT against CST3,inactive: -0.188
7,GUGUGUUUGUGGGCCCUGATT against FKBP2,inactive: -0.0466
8,GGAGGUGUAUGAGCCCGAUTT against BIN1,inactive: 0
9,GGACUUCAGGGUUUAACAATT against FOLR1,active: -1.31
10,GGACCGUACCACUUCAGAATT against ABCC6,inactive: 0.108
11,CGUCUAAUGCUGCUCCACATT against AGPAT1,active: -1.38
12,GGAAUGCAUCUACAUCAUATT against NETO1,inactive: 0.0504
13,GGGUCGUAGCAACAAAGGATT against PAFAH1B1,inactive: 0.391
14,ACUCCAUCCUAACCACCCATT against TUBA3E,inactive: -0.35
15,GCGCGAAGAUUGAGCAGUATT against MYO7A,inactive: -0.0127
16,CCCUCAUAGUAUCUAUUCATT against ABCB7,inactive: -0.0991
17,GCCUGCAAGUGAAGCGGAATT against PRMT1,inactive: -0.596
18,GAUCAGAGAAAAUACGGUATT against NARS,inactive: -0.361
19,GCUUUACCAGUUUCGAUUATT against ACTR8,inactive: -0.366
